PubChem BioAssay AID624415 (National Center for Advancing Translational Sciences (NCATS), 2012)
Hit rate of the full screen: of about 390,000 compounds, about 60 (0.02%) were called active. Inconclusive results, whose numbers are uncertain, are shown with a selection of clear calls. Rule as the data show it: active = activity change below about -50%; inconclusive = between about -30% and that limit; inactive = weaker than that.

Chains of the proteins cited; added tags and fusions are not shown.
UniProt Q9GZU1, whole entry, looked up: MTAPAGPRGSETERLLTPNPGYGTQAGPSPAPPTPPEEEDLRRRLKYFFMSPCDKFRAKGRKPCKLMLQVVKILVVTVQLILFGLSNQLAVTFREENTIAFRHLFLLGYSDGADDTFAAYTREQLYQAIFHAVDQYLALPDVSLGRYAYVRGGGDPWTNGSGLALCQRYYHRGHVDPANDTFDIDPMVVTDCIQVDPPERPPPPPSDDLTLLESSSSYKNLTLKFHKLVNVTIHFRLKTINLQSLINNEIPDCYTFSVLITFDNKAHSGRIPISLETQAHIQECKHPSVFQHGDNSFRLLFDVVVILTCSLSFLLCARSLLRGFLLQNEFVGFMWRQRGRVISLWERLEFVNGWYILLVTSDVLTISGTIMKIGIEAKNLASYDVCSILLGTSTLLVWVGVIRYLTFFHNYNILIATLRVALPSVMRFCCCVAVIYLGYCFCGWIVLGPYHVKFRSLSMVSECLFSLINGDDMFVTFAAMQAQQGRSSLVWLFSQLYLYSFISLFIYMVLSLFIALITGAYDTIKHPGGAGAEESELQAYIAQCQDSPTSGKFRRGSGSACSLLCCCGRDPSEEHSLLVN

The compounds below were run against Mucolipin-1 (Homo sapiens) (UniProt Q9GZU1) (assay: qHTS for Inhibitors of the Human Mucolipin Transient Receptor Potential 1 (TRPML1)). Settings: TRPML1-inducible cells, Ca2+ dye fluorescence, FDSS; hits give low values; inhibition of EC80 agonist-evoked calcium signal.
How it was run: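 Tet-induced TRPML1-DL cells loaded with Ca8 no-wash calcium dye were read kinetically on FDSS. Compound addition was followed by EC80 agonist 54-4 (4 uM final); inhibition was read over 110 s.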
% is scaled to controls: 0 for no effect and ±100 for the full control effect.
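Also: stimulus is agonist 54-4 at its EC80 concentration.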

| Compound | activity change, negative = inhibition |
| --- | --- |
| CCN(CC)CCCNC(=S)N1CCN(c2nc(-c3ccccc3)cs2)CC1 | inconclusive: -30.3% |
| COc1ccccc1CN1CCC(CNS(=O)(=O)c2cc(-c3onc(C)c3C)ccc2OC)CC1 | inconclusive: -31.4% |
| COc1cc(C(=O)NCc2ccccc2)ccc1OC(F)F | inactive: -10.1% |
| O=[N+]([O-])c1cccc(/C=N\N2CCN(Cc3ccccc3Cl)CC2)c1 | inconclusive: -31.4% |
| CC(C)CN(CC(C)C)S(=O)(=O)N1CCC(C(=O)NCc2ccc3c(c2)OCO3)CC1 | inconclusive: -37.5% |
| O=C(O)C1(P(=O)(c2ccccc2)c2ccccc2)CCCC1 | inactive: -9.28% |
| CSc1ccc(CNC(=O)Cc2csc3ccccc23)cc1 | inactive: -0.431% |
| Cc1ccc(Cl)cc1NC(=O)COC(=O)C1CCCCC1 | inconclusive: -33.7% |
| Brc1ccccc1-n1nnc(-c2cnc3ccccc3c2)n1 | inconclusive: -39.9% |
| CC(C)(C)CC(=O)NC(=S)NCc1ccccc1 | inconclusive: -33% |
| CCN(CC)S(=O)(=O)c1ccc2c(c1)nc(CN(C)C(=O)Nc1ccc(F)cc1)n2C | inconclusive: -39.9% |
| CCOc1ccc(-c2cc(NC(=O)c3cccc(Cl)c3)c(C(=O)OC)s2)cc1 | inconclusive: -34.6% |
| CC(=O)Nc1cccc(-c2ccnc3c2CC(C(=O)Nc2ccc4c(c2)OCO4)O3)c1 (stereo not given) | inconclusive: -36.7% |
| CCOC(=O)CN1C(=O)N[C@@H](CCc2ccccc2)C(C(=O)OC)=C1C | inconclusive: -31.8% |
| Cc1ccc2c(NC(=O)C3CC3)cccc2n1 | inconclusive: -46.3% |
| CC1CCc2onc(C(=O)N3CCN(c4ccc(F)cc4)CC3)c2C1 (stereo not given) | inactive: -13.4% |
| Cc1oc(-c2cccc(Cl)c2)nc1CN1CCC(C(=O)N2CCN(c3ccccc3F)CC2)CC1 | inactive: -17.9% |
| CCOC(=O)N1CCC(Nc2c(NCCCN3CCN(C4CCCCC4)CC3)c(=O)c2=O)CC1 | inconclusive: -31.5% |
| COc1nccc(NCc2ccccc2)c1C#N | inconclusive: -34.7% |
| O=C(Nc1ccnn1C1CCN(Cc2ccc(CO)o2)CC1)c1ccccc1 | inconclusive: -47.9% |
| C=CCC1NS(=O)(=O)OC2CCCCC12 (stereo not given) | inactive: 32.4% |
| Cc1ccccc1NC(=O)Cn1nnc2sc3c(c2c1=O)CC(C)(C)OC3 | inconclusive: -31% |
| S=C(Cc1cccnc1)N1CCOCC1 | inconclusive: -31.4% |
| CC1=C(C(=O)Nc2ccc(C)cc2Cl)C2(CCCCC2)OC1=O | inactive: -3.14% |
| Cc1c(Cl)c([N+](=O)[O-])nn1CC(=O)Nc1c(C)n(C)n(-c2ccccc2)c1=O | inconclusive: -43.8% |
| COCCOc1cc(-n2ccnc2SC)c(Cl)cc1Cl | inconclusive: -31.8% |
| COc1ccc(CCC(=O)NNC(=O)c2ccc(OC)cc2)cc1 | inconclusive: -33.4% |
| Cc1cc2c(cc1C)NC(c1c(C)n(C)n(-c3ccccc3)c1=O)C1=C(CC(C)(C)CC1=O)N2 (stereo not given) | inactive: 9.68% |

3 successive records already listed, quoted:

| Compound | activity change, negative = inhibition |
| --- | --- |
| Cc1c(Cl)c([N+](=O)[O-])nn1CC(=O)Nc1c(C)n(C)n(-c2ccccc2)c1=O | inconclusive: -43.8% |
| COCCOc1cc(-n2ccnc2SC)c(Cl)cc1Cl | inconclusive: -31.8% |
| COc1ccc(CCC(=O)NNC(=O)c2ccc(OC)cc2)cc1 | inconclusive: -33.4% |

Carrying on.

| Compound | activity change, negative = inhibition |
| --- | --- |
| Cc1cc(Br)ccc1OCCCCN1CCCCC1 | inactive: 15.6% |
| COc1ccc(C(CNC(=O)c2cccc(NS(=O)(=O)c3ccc(Br)cc3)c2)N(C)C)cc1 (stereo not given) | inactive: 6.31% |
| COC(=O)CNC(=O)C1CCN(c2nc(C)cc(C)n2)CC1 | inactive: 11.9% |
| Cn1nccc1C(=O)Nc1ccccc1C(=O)O | inconclusive: -30.1% |
| COCC(=O)O[C@]1(CCN(C)CCCc2nc3ccccc3[nH]2)CCc2cc(F)ccc2[C@@H]1C(C)C | inactive: 8.82% |
| CC1CN(C(=O)CCc2cc(C(C)(C)C)c(O)c(C(C)(C)C)c2)CC(C)O1 (stereo not given) | inconclusive: -33.2% |
| CC(=O)c1ccc(NC(=O)Cn2c(=O)nc(-c3ccccc3)c3ccccc32)cc1 | inconclusive: -33.1% |
| CC(OC(=O)CCc1nc(=O)c2ccccc2n1C)C(=O)NCc1ccc2c(c1)OCO2 (stereo not given) | inconclusive: -42.6% |
| CCOCCCN(C)C1CCN(C(=O)c2oc3ccccc3c2NC(=O)c2ccc([N+](=O)[O-])cc2)CC1 | inactive: 29.6% |
| O=C(Nc1ccc(F)cc1)c1nc(SCc2ccccc2F)ncc1Cl | inconclusive: -31.4% |
| CCC(=O)N1N=C(c2c(O)n(C)c(=O)n(C)c2=O)CC1c1ccccc1 (stereo not given) | inconclusive: -34.6% |
| CCCc1cc(C(=O)N2CCCC(C(=O)c3cccc4ccccc34)C2)n(C)n1 (stereo not given) | inactive: -0.541% |
| CCCC(=O)N1CCN(c2ccc(NC(=O)c3cccs3)cc2Cl)CC1 | inconclusive: -33.2% |
| COc1ccc(-n2cc(CN3CCC(OC)CC3)c(-c3cccc(F)c3)n2)cc1 | inconclusive: -45.6% |
| Cc1n[nH]c(C)c1S(=O)(=O)N1CCCC(C(=O)NCc2ccc(F)cc2)C1 (stereo not given) | inconclusive: -30.2% |
| Cc1ccc(S(=O)(=O)N2CCC(C(=O)NNC(=O)c3ccccc3)CC2)cc1 | inactive: 3.77% |
| C[C@H](CO)N1C[C@H](C)[C@@H](CN(C)Cc2cccc(C(=O)O)c2)Oc2cc(Br)ccc2S1(=O)=O | inconclusive: -40.8% |
| O=c1[nH]ncc(NCc2ccc(Cl)cc2)c1Cl | inconclusive: -32.7% |
| COc1cccc(C(=O)N2CCN(C3CCC(c4ccccc4)CC3)CC2)c1 (stereo not given) | inconclusive: -32.1% |
| S=c1[nH]nc(-c2cccnc2)n1C1CCCCC1 | inactive: 4.18% |
| Cc1nn(CC(O)COc2ccc3c(c2)CCC3)c(C)c1C (stereo not given) | inconclusive: -30.1% |
| Cc1ccc(C)c(Cn2c(CO)nc3ccccc32)c1 | inconclusive: -30.7% |
| CC(C)c1ccc(CNc2nc(-c3ccco3)nn2C(=O)c2ccc([N+](=O)[O-])cc2)cc1 | inconclusive: -30.6% |
| CCOC(=O)N1CCC(NC(=O)CC2C(=O)NCCN2Cc2ccccc2F)CC1 (stereo not given) | inconclusive: -33% |
| CCOC(CCNC(=O)c1cn(CC(C)C)c(=O)c2c1c1ccccc1n2C)OCC | inconclusive: -30.5% |
| O=C(COc1ccccc1F)Nc1ccc2oc(-c3cccc(Cl)c3)nc2c1 | inconclusive: -34.5% |
| O=C(Nc1cccc(S(=O)(=O)N2CCCCC2)c1)c1ccccc1NS(=O)(=O)c1ccc(F)cc1 | inconclusive: -34.1% |
